Source: PubChem BioAssay AID1259308 (NCATS, 2017)

- Assay: 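Candidate targets for better recombinant protein yield in mammalian cells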 (primary screen)
- Cell system: human HEK293 embryonic kidney cells stably expressing firefly luciferase (HEK-CMV-Luc2-Hygro)
- Reagents: single siRNA against human genes, 0.8 pmol siRNA per well
- Timing: 72 h
- Read-out: 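Reporter luminescence and viable-cell signal on separate replicate plates, given as percent of non-targeting control and median/MAD z-scores, plus per-cell luciferase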
- Scale: total luciferase, z-score and total luciferase, % of control: higher = more reporter protein produced; luciferase per cell, z-score: higher = more reporter output per viable cell; viable cells, % of control: higher = more viable cells
- Active means: 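An siRNA counts as active if its total luciferase robust z-score exceeds 3; genes with two or more such siRNAs out of three were retested with fresh siRNAs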
- Calls: active = raised luciferase; inactive = no rise
The deposit covers about 59,000 reagents; shown is a part drawn at random. About 1,510 of all reagents (2.6%) were called active. 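Calls use total luciferase alone and ignore viability, so some active siRNAs may act by altering cell number.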 Reagents against one gene are numbered here. No sequences are given here.

gene | reagent no. | total luciferase, z-score | total luciferase, % of control | luciferase per cell, z-score | viable cells, % of control | outcome
ADGRE3 | 1 | -0.291 | 76.1 | -0.28 | 91.5 | inactive
ADGRE3 | 2 | -0.128 | 79.3 | 0.114 | 86 | inactive
ADGRE3 | 3 | -0.0498 | 80.9 | -0.494 | 103 | inactive
TCIRG1 | 1 | -0.101 | 79.9 | 0.801 | 72.3 | inactive
TCIRG1 | 2 | -0.846 | 65.1 | -1.02 | 95.1 | inactive
TCIRG1 | 3 | 1.33 | 108 | 0.64 | 102 | inactive
ZNF671 | 1 | -0.33 | 75.3 | -0.306 | 91.2 | inactive
ZNF671 | 2 | -0.211 | 77.7 | -0.565 | 101 | inactive
ZNF671 | 3 | 0.705 | 95.9 | 0.0877 | 105 | inactive
SPHK2 | 1 | -1.03 | 61.4 | -0.767 | 84 | inactive
SPHK2 | 2 | -0.727 | 67.4 | 0.339 | 68.9 | inactive
SPHK2 | 3 | 1.2 | 106 | 1.45 | 80.6 | inactive
ELAC2 | 1 | -2.26 | 37 | -2.56 | 81.2 | inactive
ELAC2 | 2 | 0.849 | 98.8 | 0.746 | 90.7 | inactive
ELAC2 | 3 | 0.813 | 98.1 | 0.972 | 84.8 | inactive
AKR1B15 | 1 | 7.83 | 238 | 4.56 | 80 | active
AKR1B15 | 2 | 1.34 | 109 | 1.06 | 91.8 | inactive
AKR1B15 | 3 | 0.23 | 86.5 | -0.617 | 114 | inactive
SKIDA1 | 1 | -0.387 | 74.2 | -0.525 | 95.2 | inactive
SKIDA1 | 2 | 0.733 | 96.5 | 0.755 | 88.4 | inactive
SKIDA1 | 3 | -0.945 | 63.1 | -1.24 | 97.7 | inactive
FLRT1 | 1 | 7.48 | 231 | 4.91 | 70.8 | active
FLRT1 | 2 | 0.00139 | 81.9 | 0.137 | 88.3 | inactive
FLRT1 | 3 | 0.566 | 93.1 | 0.765 | 85.1 | inactive

4 of these entries in another layout.
{"gene": "ZNF671", "reagent no.": 2, "total luciferase, z-score": -0.211, "total luciferase, % of control": 77.7, "luciferase per cell, z-score": -0.565, "viable cells, % of control": 101, "outcome": "inactive"}
{"gene": "ZNF671", "reagent no.": 3, "total luciferase, z-score": 0.705, "total luciferase, % of control": 95.9, "luciferase per cell, z-score": 0.0877, "viable cells, % of control": 105, "outcome": "inactive"}
{"gene": "SPHK2", "reagent no.": 1, "total luciferase, z-score": -1.03, "total luciferase, % of control": 61.4, "luciferase per cell, z-score": -0.767, "viable cells, % of control": 84, "outcome": "inactive"}
{"gene": "SPHK2", "reagent no.": 2, "total luciferase, z-score": -0.727, "total luciferase, % of control": 67.4, "luciferase per cell, z-score": 0.339, "viable cells, % of control": 68.9, "outcome": "inactive"}
